Results as given in publication doi:10.1101/2023.07.27.550750.
Where two headings read alike, the source gives them in different places. These are yes or no findings as the source states them, for the method shown. Binding seen in cells or lysates may run through a third protein. These calls come from enrichment with a bait or labelling near it, and not all partners need be listed. Sequences can lack the tags named with a protein. Values belong to the binder of their own block, whether it stands above or below them.

Assays:
Test in all cases: affinity purification with mass spectrometry
[1] = biological target: T1, Izumo1-3xFLAG-sfGFP (zebrafish)
T1 sequence: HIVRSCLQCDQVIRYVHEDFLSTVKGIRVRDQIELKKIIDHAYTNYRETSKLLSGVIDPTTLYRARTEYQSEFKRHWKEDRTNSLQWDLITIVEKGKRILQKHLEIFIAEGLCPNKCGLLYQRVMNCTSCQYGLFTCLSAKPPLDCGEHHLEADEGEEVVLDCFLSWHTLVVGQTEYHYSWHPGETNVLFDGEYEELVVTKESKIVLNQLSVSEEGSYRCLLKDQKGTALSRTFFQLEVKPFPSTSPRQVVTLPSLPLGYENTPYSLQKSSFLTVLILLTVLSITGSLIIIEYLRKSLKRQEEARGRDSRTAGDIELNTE

[2] = biological target: T1, Izumo1-3xFLAG-sfGFP (zebrafish); remark: listed apart in the source
[3] = biological target: T2, Tmem81-3xFLAG-sfGFP (zebrafish) (UniProt B8JI67)
T2 sequence: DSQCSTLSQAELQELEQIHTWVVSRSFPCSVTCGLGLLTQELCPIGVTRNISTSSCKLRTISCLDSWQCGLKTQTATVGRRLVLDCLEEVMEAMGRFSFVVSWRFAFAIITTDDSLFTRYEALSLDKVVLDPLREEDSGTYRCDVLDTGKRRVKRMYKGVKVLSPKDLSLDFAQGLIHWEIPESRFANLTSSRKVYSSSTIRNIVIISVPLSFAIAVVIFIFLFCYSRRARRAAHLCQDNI

[4] = biological target: T2, Tmem81-3xFLAG-sfGFP (zebrafish); remark: listed apart in the source

binding [1]: binds
binding [2]: binds
B1: Tmem81 (protein, UniProt B8JI67 19-259)
chain: T2 sequence

binding [1]: binds
binding [3]: binds
binding [2]: binds
binding [4]: binds
B2: Spaca6 (protein, UniProt A0A8M9PDM1 19-317)
chain: FTCYQCFIDENDSRRLCLGHILTEYNVRNVDSCYKTLDRIFNNEEKVIEAGKVGRGYDLTLKNILMAEIMPIVEEFDQQLNYDTEYESRLQAAANNFIAAASSLPRVSGCLPPCGFQVQGAVYNCVTCQYDSCEFPLDCPGKEITVQENNRTQMWCSVPFLLPADVEIVWRYAQDRTMLRERFDDVTVGVDPLYSIPSARPEQSGTYQCEVLSQEQSLVRLYFYLTVVPVAQTYHVHLQDLCAQALRPEPQFPPSFSFWLPRPALLITCLTATMLLIFLSLGAMCRLWYQIRTNVSNPA

binding [3]: binds
binding [4]: binds
B3: Izumo1 (protein, UniProt A0A2R8QHQ6 17-336)
chain: T1 sequence
